Results taken from PMC3660565.
No constants are given. Whether binding was seen depends on the method and setting. In cells and extracts the contact can be indirect. Binding calls can cover weak binding; strength is not graded here.

The chains behind the UniProt entries cited, without tags or fusion partners. Where a name states a change or a piece, a line headed by the entry shows the natural chain unless it says otherwise.
UniProt Q15173: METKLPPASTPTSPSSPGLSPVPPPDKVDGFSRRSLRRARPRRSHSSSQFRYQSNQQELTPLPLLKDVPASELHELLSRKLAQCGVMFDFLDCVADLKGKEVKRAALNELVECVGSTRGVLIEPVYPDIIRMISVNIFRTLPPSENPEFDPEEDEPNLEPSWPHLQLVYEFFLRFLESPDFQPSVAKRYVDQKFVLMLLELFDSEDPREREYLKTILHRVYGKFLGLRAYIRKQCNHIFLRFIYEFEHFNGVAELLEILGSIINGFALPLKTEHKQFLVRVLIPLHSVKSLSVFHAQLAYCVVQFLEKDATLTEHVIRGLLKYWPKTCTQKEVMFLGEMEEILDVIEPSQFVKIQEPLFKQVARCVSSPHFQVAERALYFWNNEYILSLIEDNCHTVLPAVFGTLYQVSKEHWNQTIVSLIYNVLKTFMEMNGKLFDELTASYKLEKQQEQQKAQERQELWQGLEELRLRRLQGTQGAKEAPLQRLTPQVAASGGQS
UniProt Q15172: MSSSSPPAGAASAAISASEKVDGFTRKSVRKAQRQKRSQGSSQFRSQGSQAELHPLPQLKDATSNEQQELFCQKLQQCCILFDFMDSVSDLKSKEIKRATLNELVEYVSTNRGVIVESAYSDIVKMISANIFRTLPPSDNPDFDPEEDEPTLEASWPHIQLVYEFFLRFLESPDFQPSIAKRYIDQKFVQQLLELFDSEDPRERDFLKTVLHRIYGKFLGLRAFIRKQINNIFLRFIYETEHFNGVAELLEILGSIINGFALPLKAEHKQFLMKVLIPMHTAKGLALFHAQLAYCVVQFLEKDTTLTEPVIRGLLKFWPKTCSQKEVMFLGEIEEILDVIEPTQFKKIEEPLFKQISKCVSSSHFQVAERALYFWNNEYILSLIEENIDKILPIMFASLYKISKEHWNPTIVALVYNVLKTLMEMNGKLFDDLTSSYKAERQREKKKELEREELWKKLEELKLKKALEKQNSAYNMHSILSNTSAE
UniProt P67775: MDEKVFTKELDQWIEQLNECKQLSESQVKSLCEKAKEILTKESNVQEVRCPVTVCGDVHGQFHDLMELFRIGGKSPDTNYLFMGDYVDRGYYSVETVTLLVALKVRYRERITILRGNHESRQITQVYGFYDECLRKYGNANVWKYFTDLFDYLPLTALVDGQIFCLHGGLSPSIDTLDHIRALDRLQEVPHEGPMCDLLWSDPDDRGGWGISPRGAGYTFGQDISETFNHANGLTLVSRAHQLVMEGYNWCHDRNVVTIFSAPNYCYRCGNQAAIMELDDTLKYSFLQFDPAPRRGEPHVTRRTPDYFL

Experiments:
[1] = target: HA-tagged B56β1 (PP2A regulatory subunit B56β1) (UniProt Q15173); assay: co-IP; HA-B56 immunoprecipitated with anti-HA antibodies and protein G Sepharose from lysates of permanently B56-transfected Calu1 cells (50 mM Tris-HCl pH 7.4, 150 mM NaCl, 1% NP-40, 0.25% sodium deoxycholate); co-precipitated endogenous proteins detected by western blotting; 2x10^6 cells (6x10^6 cells for B56β1 with C subunit); in Figure 7A cells stimulated with EGF and loaded on collagen, 0 to 60 min
[2] = target: HA-tagged B56α1 (PP2A regulatory subunit B56α1) (UniProt Q15172); assay: as above

binding [1]: binds
binding [2]: binds
Sequence: C catalytic subunit of PP2A (from UniProt P67775) (enzyme)
